Reference: PMC10987111 (Advanced Science, 2024)

Experiment: general procedure: solution-phase peptide synthesis; EDC·HCl, HOBT, DIPEA

1-(((S)-7-benzyl-20-(2,5-dioxo-2,5-dihydro-1H-pyrrol-1-yl)-3,6,9,12,15-pentaoxo-2,5,8,11,14-pentaazaicosyl)oxy)-N-((1S,9S)-9-ethyl-5-fluoro-9-hydroxy-4-methyl-10,13-dioxo-2,3,9,10,13,15-hexahydro-1H,12H-benzo[de]pyrano[3',4':6,7]indolizino[1,2-b]quinolin-1-yl)cyclobutane-1-carboxamide
conjugation yield (conjugation step): 31.8%

benzyl (S)-1-((11-benzyl-3,6,9,12,15-pentaoxo-1-phenyl-2-oxa-4,7,10,13,16-pentaazaheptadecan-17-yl)oxy)cyclobutane-1-carboxylate
step yield (coupling step): 34.2%
